From the supplement of paper PMC5949888
Most values lie at the floor of the assay. Slopes are relative: functional sequences can read slightly below zero.

Tested on: Saccharomyces cerevisiae PS128 hsf1 delta, HSF1(1-493) fusion
Experiment: growth estimate (transactivation domain function in HSF1 fusion, heat-shock survival) (a.u. (slope of normalised read count over time)); higher = stronger growth at 37°C, i.e. more transactivation activity
Conditions: library: random library

Substance | growth estimate
SVLL | < -0.25
DRPTGPLISGERGKAVGPCP | < -0.25
FGTVASRLDLEIMELGLDNT | < -0.25
RRRSRREGRYALFASNTSKF | -0.198
QLSIDMT | < -0.25
RHKYGVL | < -0.25
GRPTGLGLRTPHHAGILEGV | < -0.25
SSPLMWHTIPTSEHQNSEAG | < -0.25
GWSV | < -0.25
QFGRQAYPDYRKDTSSEGNG | < -0.25
LDIPSFERGRMRAGPEARGL | < -0.25
GPRQPSEVALERHPPLCAAA | < -0.25
ARSV | < -0.25
PRASHLWLVGRPPGLRPIGL | < -0.25
RDPRNLRHSIRPTGGTGTSS | < -0.25
WFLLLQGVSQTSPWPTPCVR | < -0.25
TPAGIETGAQEKWTELLTSS | < -0.25
IDGN | < -0.25
YMYGVNRVHSR | < -0.25
PPGSLTPRT | < -0.25
GMTVYGSCHNEFQDSPE | < -0.25
RNASDSGVS | < -0.25
VPRIYTF | < -0.25

Copied from the results shown for reference:
Substance | growth estimate
GRPTGLGLRTPHHAGILEGV | < -0.25
SSPLMWHTIPTSEHQNSEAG | < -0.25

Further records follow:

Substance | growth estimate
ISAITGEEVEARCDRSLLYR | < -0.25
QRAYLAVNFCAAWIKAMQ | < -0.25
LKYVSDEVKAAFATGTDYP | < -0.25
LHLSEEALRLAVRV | < -0.25
PNRPKAPYLEGDHAPIDPLG | < -0.25
YSSAAHNYRLGFVVLAGRHD | < -0.25
LLQRFLTTAWD | 0.109
YGFHADK | < -0.25
LLIVHCETKIKKGCSWSRWT | < -0.25
CYSK | < -0.25
QKRGSLKIKTNYSERSELES | < -0.25
AASLVTTRERSCGAKRGKQG | < -0.25
MVGPSGLNTKFAGAS | < -0.25
LGGIFVFLVSPSNRARLLSR | < -0.25
RFCNQSGPCTLDRYNIPSCG | < -0.25
FTS | < -0.25
ELPVSYCGVTLWRGTLAHTA | < -0.25
TPGTPSGPPYTAFKQ | < -0.25
THGHGV | < -0.25
GPTRLLTW | < -0.25
GGGSTPFLIKVW | < -0.25
SGLARTVFPAITTRTYAPPP | < -0.25
GPIFSKFML | < -0.25

Quoted at random: 5 records from the list, in no set order.
Substance | growth estimate
ISAITGEEVEARCDRSLLYR | < -0.25
ARSV | < -0.25
YGFHADK | < -0.25
SVLL | < -0.25
GWSV | < -0.25

Additional results follow.

Substance | growth estimate
ATK | < -0.25
VDVAGFRSVLTGSLISRM | < -0.25
RRVGYVRTVDWSHPELW | < -0.25
TAGRCIGMVPASCCGVGSPG | < -0.25
LPNWRPLTSIQDFGEIRQYT | < -0.25
IVWCKVTPSIHSGNVTLCLS | < -0.25
LCIRSFIFDGDVNLHVRTRG | < -0.25
YRKLCTDKFLAIWETSTSAV | < -0.25
DGGDRCLVRRQLSFLMLGVQ | < -0.25
PLSEVQADTC | < -0.25
VGSYTLR | < -0.25
RRVTSLYRFNSSNFRPGRGI | < -0.25
SWTFGPPQ | < -0.25
FESREQGIIYGPLLYTSWV | < -0.25
RAFLLMGTTQCQNA | < -0.25
GGGGGLMASIR | < -0.25
IICTDAGM | < -0.25
GPLVSGIVSLKPQ | < -0.25
CPRPGIYSRTVSRNQGRVRV | < -0.25
RQVSLDGESTIERFPWL | < -0.25
TQCRRAKH | < -0.25
GEAADGGHVV | < -0.25
FRWACSLTSSRRART | < -0.25

Substance | growth estimate
PRAQIKSEGGMLRLPG | < -0.25
FTGTPNAKSFACLIECHMPC | < -0.25
VVTLQRGLWGRRCQY | < -0.25
CRSCMPRDYRLWGHANILPC | < -0.25
RLSVNQSAWNFFSDGLIWCC | -0.227
RIPLIDESACGPESVVPVGV | < -0.25
LLLITSGPHPSICACTMRLL | < -0.25
RRRA | < -0.25
LPCGEYDVLFRFTAIGGVNL | < -0.25
TAGAGSGRRGTILQAGDSHG | < -0.25
VMGSRRVAIHNKARPMHVPT | < -0.25
QSPVVRQIHKCVCVYRARVT | < -0.25
ALLATGYAYLSVRLKGASGS | < -0.25
FIWFLYRTTSNRR | < -0.25
LDLTNDRKVGRLDS | < -0.25
PERLRI | < -0.25
KLRNLSVSQSQRHRGAIWGG | < -0.25
VSSSRGV | < -0.25
DRMITLTFA | < -0.25
RNRSERANTRAYGRGSREGA | < -0.25
TGATTAQVRVDRQRGACRGA | -0.237
PSRLESLWLIGSS | < -0.25
IYQ | < -0.25

Substance | growth estimate
RKMAGRRPHTLYCGEESGWA | < -0.25
NATGSTRGIKDLEGCQTCRK | < -0.25
SGALLKCLGPSAVRRL | < -0.25
QVRSMFGSRGSPS | < -0.25
TSLPRIRDSAGGSELFRAGL | < -0.25
YVLRRHSTISERPVRSVGSL | < -0.25
DLSGKK | < -0.25
RSTTSRQLGILSGITVAG | < -0.25
PDVRWAGDMHIGAPVVRTVM | < -0.25
RQVRLDKDGSPFVIAAVIIR | < -0.25
TPLER | -0.246
ENR | < -0.25
PIFGIDSIGCSA | < -0.25
FPFGRLTGFH | < -0.25
VGCRFRGTNA | < -0.25
PWGGF | < -0.25
TLSKGLKIYLT | < -0.25
LLLHLWRCDRREPRHPISHT | < -0.25
FDHNDYQVVDQFHTPDILYW | < -0.25
THVYGGTRR | < -0.25
YPNAFRVISSPVTKWTVYVG | < -0.25
QGGYRDSCLKCYLFGV | 0.0906
RSVCGQGTTTSSGATGDIKS | < -0.25

Substance | growth estimate
VSEVCDMLRFCI | < -0.25
GILASWPGQAITGS | < -0.25
RAGGKMGGTVARRLSVY | < -0.25
MFWTWNNAVRSTRRGFSGTN | < -0.25
TAGSFYERLSRL | < -0.25
GLPPA | < -0.25
EVDPPE | < -0.25
SLRLLRGSGSLSRRRTSRSH | < -0.25
ITLVGSELVLGAKVIPALLG | < -0.25
KSLHDVL | < -0.25
IRPLGNRQR | < -0.25
LVAVTVFPTVG | < -0.25
LWSILTIYEYAA | < -0.25
RCVSNSVCEFENGAVCDPAG | < -0.25
PAQAHLFAATAHGTT | < -0.25
PFSTLP | < -0.25
VVPGIEVDRLMTMLHNIDST | < -0.25
RGCLIATYVSRYVYWK | < -0.25
ADSDRCRSESTRIPYGPPFR | < -0.25
REPGLDRHRGKDETSSVARF | < -0.25
AGFSCNVAVNSAVRSKGVYG | < -0.25
RRRERIGRTP | < -0.25
EMVHASVHVVRFLGDWRTLR | < -0.25

Substance | growth estimate
CGSIYSDGKAPSDEDLCTAG | < -0.25
PAARNMRRTTPACAGWDPPG | < -0.25
HRQNTRFYTCNDLCYYRVRG | < -0.25
YQILWSTTSP | < -0.25
SSCG | < -0.25
SQWASRVHVRYILERVSPLR | < -0.25
TTGCRTLINDKTAI | < -0.25
INGKSIEAQVPPRSLGFNDL | < -0.25
DSMVYHPDSTSELQISSDYT | < -0.25
TIWSLPSCKYSRLIQGAEIE | < -0.25
LNLVRDEFVYE | < -0.25
ELGLQLFR | < -0.25
LSYGDM | < -0.25
LLFNIARRTYRSFWRSELRQ | < -0.25
DYTARGPDGCYHFEQLFNSA | < -0.25
RSPLSSREACNS | < -0.25
DEQGLKHVVLRQTLSEYCGI | < -0.25
GTHGVLVSCNRVL | < -0.25
RYRASNREFS | < -0.25
